# Hit rate of the full screen: of about 52,000 sequences, about 210 (0.4%) were called active.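 Rule for the calls: active = gene whose silencing raises cell survival under the drug, median off-target-corrected z-score across its silencing RNAs 2 or more; inactive = the rest.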 Some of the results follow.
# Test: Resistance to Poly (ADP-Ribose) Polymerase inhibitor: Gene Identification via Genome-wide siRNA Screen
# Details: mouse BRCA2 R2336H ES cells, olaparib, CellTiter-Glo viability; active compounds read high
# Text: The role of Poly (ADP-Ribose) Polymerase (PARP) proteins in DNA repair has been elegantly utilized for the synthetic lethality-based treatment of BRCA-deficient tumors by PARP inhibitors. PARP inhibitors are now being used for treatment of BRCA-deficient breast and ovarian cancers. […] While several mechanisms of drug resistance have been identified, majority of these tumors develop drug resistance due to unknown causes. To identified novel regulators of chemo-resistance in BRCA2-mutated cells, we performed a genome wide siRNA library screen. We have found ES cells expressing a hypomorphic allele of BRCA2 to be hypersensitive to PAPP inhibitors (such as olaparib). We used ES cells expressing a mutant allele of BRCA2 that has a single amino acid substitution at position 2336 (arginine to histidine, R2336H). The screen was conducted using an Ambion (Thermo) Silencer Mouse Genome siRNA collection. The library targets 17,575 mouse genes with 3 siRNAs per gene. TET2 (E130014J05Rik) was identified as a top candidate.
# Transfections were performed in 384 well plates (Corning 3707). Plates were coated with 0.1% gelatin in H2O overnight at ambient temperature. Gelatin solution was aspirated (BioTek EL406) and siRNAs were printed using a Bravo VPrep liquid handler integrated within a BioCel automation platform (Agilent). Cell viability was measured using CellTiter Glo (Promega). For transfections, […] of serum free media containing Lipofectamine RNAiMax […] was added to wells containing siRNA (0.8pmol). Lipid and siRNA were allowed to complex for 45 min at ambient temperature before addition of 1000 cells in DMEM, 30% FBS to yield final transfection mixtures containing 20 nM siRNA in DMEM, 15% FBS. PARPi (olaparib, AZD2281) was added 48 h post-transfection (500 nM) and viability (CellTiter Glo, Promega) was assayed 72 h later on a PerkinElmer Envision 2104 Multilabel plate reader. Ambion Silencer Select Negative Control #2 was incorporated on all screening plates (16 wells) and the median negative control value on each plate was used for normalization. An siRNA targeting Trp53 was used as a positive control. This control yielded a median protective effect of ~1.9 fold versus negative control throughout the screen. The median absolute deviation (MAD) based z-score was calculated for each siRNA. Genes were then ranked by taking the median value for all siRNAs tested against a given gene. Scores were also adjusted for seed-based off-target effects to help deprioritize likely false positives.
row,Sequence,z-score
1,GCCGGAUGACCUACCAUUUTT against Apoh,inactive: 0.649
2,GGUACUGAGAGACAUCGAGTT against Tgtp,inactive: -0.0707
3,GGAUACCUCAGUGACUACGTT against Scrt1,inactive: -2.17
4,GGAGCUAGCUGAGAUUUUCTT against Tnnc2,inactive: 1.06
5,GGUUGACGCGCAACAAAAUTT against Gp5,inactive: 2.97
6,GGCAUGAGUGCAUUUGCUATT against Ifi203,inactive: -0.0595
7,GGAACAGGUACUAGAAGUATT against 9130011E15Rik,inactive: 0.428
8,GGAAGUGAAGGAAAGCAUCTT against Amaco,inactive: -0.315
9,GCUAUAAAGGUGGUAACACTT against Col7a1,inactive: 0.388
10,GGCUAUAGUAGGUCUUUCATT against Arhgap1,inactive: -1.99
11,GGUAAUUAAAACCAUGGAGTT against 2810428I15Rik,inactive: -0.171
12,GGGCUUAAGGAAUAAACCATT against Phtf2,inactive: -2.02
13,GGGAUCCCACCUGAAAAAATT against Wdr51a,inactive: -0.624
14,GGAUUUUGCUGUUUUGGAATT against Dsc1,inactive: 0.892
15,GGCUAAAAAUAACAUCACCTT against Gabra2,inactive: 0.904
16,CCAAUAAAAAAUGUCUGCATT against 4732473B16Rik,inactive: -0.0244
17,GCUUGACAUGUCCUCAGAGTT against BC040823,inactive: -0.158
18,GCCGCUUCCAUUUUCUAUATT against Hic1,inactive: 1.82
19,GCUGGUAUCAUGAUUUUGGTT against LOC333669,inactive: 1.74
20,CGAAAUUGCUGACUCAGAATT against Arl6ip6,inactive: 0.658
21,CCUAACCAUCGACUUCUUCTT against Wfs1,inactive: 0.19
22,GGACUUGACUAGACUUUCUTT against Cops7b,inactive: -1.51
23,GCACGUACUGUUCUAGAAGTT against Kcng4,inactive: -1.17
24,GGAGCACAGUCUCAUGAAUTT against A130014H13Rik,inactive: 0.604
25,GGAGUUCGUACCCUUAUCCTT against AW540478,inactive: -0.525
26,GGUGACGAUACAGAAAGAGTT against Zfp523,inactive: -2.21

row,Sequence,z-score
1,GCCAUCUACGUGUCAUAGCTT against Siah1b,inactive: 0.971
2,GGAAGAACCCAGCAAUGUCTT against Lzts2,inactive: 0.0916
3,CCCAAUAGUUUCUACUACUTT against Mkks,inactive: -1.31
4,GCUAUAAAAAGAGCUCCGCTT against Cox8b,inactive: -0.106
5,GGAAUAAAACUUCUGAGAATT against Oog1,inactive: 0.00685
6,GGCAAAGUUUAUGAAAUCCTT against Lipg,inactive: 1.33
7,CCGCUUACAUCGACUUUGCTT against Tpi1,inactive: -0.224
8,GGUAGCAGUGAUAGACACATT against Zfyve1,inactive: -0.456
9,GUUCUUUUUCUUCGGUUCCTT against Olfr1020,inactive: -0.0794
10,GCUACCAAAUUCUUUCAGUTT against Prpf8,inactive: -2.01
11,GGUAAAUACAGCAGUCCAGTT against 0610009I22Rik,inactive: -2.04
12,GGCAAUGACGAAAUAACCCTT against Il10rb,inactive: -0.191
13,CCAUCAAGAGGUAUAAUCUTT against A930017E24Rik,inactive: -2.24
14,GCACUGACGACAAAAGUUCTT against 1500001L15Rik,inactive: -0.816
15,GGUGGAGUCAAAGGAACCCTT against C430004E15Rik,inactive: 0.713
16,GGAGCUAAUCGAGAAAAUGTT against Arl10b,inactive: -0.228
17,GGGUUAAGGAACUUUAUGUTT against Cnnm4,inactive: -0.606
18,GCACUCUGUUCAGCUAAAATT against 7530404M11Rik,inactive: 0.947
19,CCUUAUCCAGUCACUUUGGTT against Gabra5,inactive: 0.564
20,GGGACAUGAGUUUUAAAAUTT against Dazl,inactive: 0.889
21,CCCUAAGAAUCCUUGUUCUTT against V1rd16,inactive: 0.503
22,GAUGAAGAAGAGCAGGCUCTT against MGC118210,inactive: -0.353
23,CGUACAUCAGAAUGUUAAUTT against Fkbp4,inactive: 0.967
24,GGAAGUGUAUGAUCUCAUGTT against Tyro3,inactive: 2.47
25,GGGAAAUGACAAUUGAAAGTT against 4921526G09Rik,inactive: 0.141
26,GGUGUCCACUUAAUUCUGATT against Mmp19,inactive: 0.391

# Quoted from the listing:
# In z-score, GCUAUAAAAAGAGCUCCGCTT against Cox8b shows inactive: -0.106
# In z-score, CCCAAUAGUUUCUACUACUTT against Mkks shows inactive: -1.31
# In z-score, GGAAGUGUAUGAUCUCAUGTT against Tyro3 shows inactive: 2.47

# Next part:

row,Sequence,z-score
1,GGAACUCCACUUUCUUUUUTT against Dscr6,inactive: 1
2,CCCAUCUCACUAUUUAAUATT against Lrrc3b,inactive: 0.119
3,GGGUUGCUACAAUCAUUGUTT against Scara3,inactive: 0.0261
4,GCUACAAAGAGUAAAACUGTT against Zfp251,inactive: 0.235
5,GCAAUAUGCGGAUUUUACCTT against Mtbp,inactive: 0.245
6,GGGACCUAAUCAAUUGUUGTT against Fbxo3,inactive: -0.0343
7,GGACUAUCCAACCUCCUAGTT against Cd47,inactive: 0.488
8,GGCAUGGAAGGCUAAACAGTT against Slc25a17,inactive: -0.224
9,GGUUGGAGUUCAACAGAUGTT against Ksr,inactive: -2.14
10,GGAGAUAACACCGUUACUUTT against Olfr769,inactive: -1.54
11,GGUUCAAGAACUUAAGACATT against Cenpe,inactive: -2.28
12,GCGAGUGACACAUCUUCUCTT against Klhl7,inactive: 2.34
13,GCAGGAAUGCGGUAUAAACTT against Inpp5f,inactive: 0.822
14,GCCUCUUUAGGCUCUCUUUTT against Hspb6,inactive: -1.53
15,CGUAGUCCUGUAUCCUCUATT against Aip,inactive: -0.54
16,GGACAUCGAUCCCUUUGACTT against 0610007P22Rik,inactive: -0.0114
17,GCAGAGACUCCAAAGCUCATT against Chd4,inactive: -2.73
18,GGCAAUUGUUUUUAGAGAGTT against 2610510J17Rik,inactive: 0.946
19,GCUGCACAAGUGAUAUCCGTT against Trim26,inactive: 1.05
20,GGUGUCUCUGAAUGAUGGCTT against 1810009J06Rik,inactive: -0.317
21,GGCUUGUUUUGCCCAGAUGTT against Olfr398,inactive: -2.84
22,UAUAGAACAUGCCAAAUUGTT against Adam26,inactive: 0.819
23,GGCAUGGAGAGAAGAAAAGTT against 2400009B11Rik,inactive: -0.642
24,GGUCUUUGAUCUACGAAUGTT against Rhobtb2,inactive: -0.616
25,AAGUCUGAUUGAAGAGGAATT against Gnrh2,inactive: -0.378
26,UGAAGAAUAAGGAACUCAUTT against MGC58382,inactive: -0.239

row,Sequence,z-score
1,CGUCUCAACAGAGUUGGAGTT against Hrmt1l1,inactive: 0.151
2,GGGUUAAAAACAAAGGACGTT against Adcyap1,inactive: 0.414
3,CCUUCUAGAGUACAUCAUATT against Plfr,inactive: 0.00345
4,GGAGUCGAGUGAUGGUUCATT against Rtl1,inactive: -0.667
5,GGAUGCAUGGCUCAGUUAUTT against Olfr143,inactive: -0.136
6,GGAGAUAAUCCUUGUCACGTT against MGC51670,inactive: 0.505
7,GGGCUUCACUUCCUUAGGATT against Cog3,inactive: -1.68
8,GCUUCUCCGCUUAUUGGUCTT against Tscot,inactive: -0.494
9,GGUACACUUUCAGAAAUGUTT against 3110037I16Rik,inactive: 0.544
10,GGGUCUCAAAGCAGUUUUUTT against Rhoj,inactive: 1.66
11,GUAUGAUCUUUAAACUCCATT against Ppp1r13l,inactive: -0.499
12,CGUCUUACACGGUUCAAAGTT against Tbc1d10,inactive: -0.579
13,GGAAGAAAGUGAAGAAGAGTT against C230004F18Rik,inactive: -1.93
14,GGCGUAUCAUUUUAUCGACTT against Phlda3,inactive: 0.488
15,GGAGCAGAUGAGAUCCAAGTT against Cdc42se1,inactive: -2.26
16,GCGUUGAAACCACUUUGUATT against Tmprss11c,inactive: -0.969
17,GGACGCGGGAAAAAUGUUCTT against Hnrpab,inactive: 1.69
18,GGGAUCUUUUACUCAUACUTT against Olfr862,inactive: -0.0127
19,GCCUAGACAAAGUGAUGGATT against Sybl1,inactive: -0.418
20,GGAUGAGUUUGACAAGCUGTT against Rhou,inactive: -1.67
21,GGGUCACUGAAGGUACUCUTT against Igsf7,inactive: 1.7
22,GGUCAAUGAGUUAGCAAUATT against Olfr1143,inactive: 0.122
23,GGAGACACUGAAUGUGACATT against Ttyh1,inactive: 0.236
24,GGCCCUAAUAGCAACAGGATT against Ubqln2,inactive: 0.104
25,GGACAAUGUGAGUUUCCUGTT against 5330439B14Rik,inactive: -1.38
26,GGGCAACUUUGAGUUCGAATT against Dok2,inactive: -0.0843

# Quoted at random: four records from the list
row,Sequence,z-score
22,UAUAGAACAUGCCAAAUUGTT against Adam26,inactive: 0.819
11,GUAUGAUCUUUAAACUCCATT against Ppp1r13l,inactive: -0.499
22,GAUGAAGAAGAGCAGGCUCTT against MGC118210,inactive: -0.353
5,GGUUGACGCGCAACAAAAUTT against Gp5,inactive: 2.97
